Source: publication PMC11589570, “Critical assessment of LC3/GABARAP ligands used for degrader development and ligandability of LC3/GABARAP binding pockets” (Nature Communications, 2024)
Values joined by “and” are separate entries in the source; they are usually repeats but may differ in a detail not shown here. Equal values may be shown once. The source gives many values for each of these; only a part stands here.

System: U2OS cells
Experiment: Cell growth assay (IncuCyte confluence over 72 h)
Format: cell-based
Design: key: % of well area covered by cells (confluence)
Settings: listed as AN2
Summary of the method: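 U2OS cells were grown in DMEM with 10% FBS for 24 h before treatment. Confluence was then tracked by IncuCyte phase imaging over 72 h and expressed as % of well area covered by cells. Each point is the average of three wells.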

Structure (SMILES): O=c1cc(-c2ccccc2)c2c(O)cc(O)cc2o1 [compound 2]
- U2OS cell growth (3 uM, time 12 h): 47.3303
- U2OS cell growth (3 uM, time 14 h): 60.2503 and 54.9602 and 48.3174
- U2OS cell growth (3 uM, time 16 h): 67.2719 and 60.345 and 55.6492
- U2OS cell growth (3 uM, time 18 h): 65.8385 and 62.0183 and 52.3569
- U2OS cell growth (3 uM, time 20 h): 68.2939 and 61.4907 and 55.3665
- U2OS cell growth (3 uM, time 22 h): 69.7247 and 71.1481 and 59.0654
- U2OS cell growth (3 uM, time 24 h): 71.5118 and 72.011 and 58.2123
- U2OS cell growth (3 uM, time 26 h): 74.6971 and 74.1434 and 62.6924
- U2OS cell growth (3 uM, time 28 h): 79.2385 and 79.2925 and 68.5776
- U2OS cell growth (3 uM, time 30 h): 81.3865 and 78.444 and 67.74
- U2OS cell growth (3 uM, time 32 h): 78.9088 and 81.2118 and 70.9288
- U2OS cell growth (3 uM, time 34 h): 79.7336 and 82.5552 and 69.8773
- U2OS cell growth (3 uM, time 36 h): 84.1266 and 83.7391 and 74.7579
- U2OS cell growth (3 uM, time 38 h): 85.3594 and 84.6235 and 80.7257
- U2OS cell growth (3 uM, time 40 h): 90.6298 and 89.6715 and 82.8177
- U2OS cell growth (3 uM, time 42 h): 91.4026 and 91.5867 and 86.9515
- U2OS cell growth (3 uM, time 44 h): 91.9788 and 92.6416 and 86.3135
- U2OS cell growth (3 uM, time 46 h): 89.5194 and 91.2335 and 79.5849
- U2OS cell growth (3 uM, time 48 h): 94.5852 and 95.1394 and 91.3356
- U2OS cell growth (3 uM, time 50 h): 93.6594 and 94.2364 and 85.1466
- U2OS cell growth (3 uM, time 52 h): 94.9989 and 96.9567 and 93.7392
- U2OS cell growth (3 uM, time 54 h): 92.1117 and 97.7411 and 88.2021
- U2OS cell growth (3 uM, time 56 h): 98.3681 and 98.7929 and 95.4442
- U2OS cell growth (3 uM, time 58 h): 96.9677 and 98.7875 and 95.8566
- U2OS cell growth (3 uM, time 60 h): 99.2543 and 99.6203 and 98.4047
- U2OS cell growth (3 uM, time 62 h): 99.2189 and 99.1209 and 98.7755
- U2OS cell growth (3 uM, time 64 h): 99.1725 and 99.2312 and 99.3386
- U2OS cell growth (3 uM, time 66 h): 98.8673 and 99.823 and 99.0094
- U2OS cell growth (3 uM, time 68 h): 99.7774 and 99.7996 and 99.6577
- U2OS cell growth (3 uM, time 70 h): 99.4148 and 99.9601 and 99.5644
- U2OS cell growth (3 uM, time 72 h): 99.5184 and 99.9025 and 99.8766
- U2OS cell growth (5 uM, time 12 h): 58.3667 and 59.3748 and 59.5417
- U2OS cell growth (5 uM, time 14 h): 59.1899 and 56.0347 and 57.3567
- U2OS cell growth (5 uM, time 16 h): 64.9176 and 65.5034 and 64.6862
- U2OS cell growth (5 uM, time 18 h): 64.8737 and 67.459 and 65.654
- U2OS cell growth (5 uM, time 20 h): 65.0583 and 61.9186 and 61.8898
- U2OS cell growth (5 uM, time 22 h): 70.1081 and 69.6092 and 70.29
- U2OS cell growth (5 uM, time 24 h): 72.4263 and 68.7022 and 68.1645
- U2OS cell growth (5 uM, time 26 h): 76.3189 and 75.1556 and 72.288
- U2OS cell growth (5 uM, time 28 h): 77.0985 and 76.5762 and 77.1285
- U2OS cell growth (5 uM, time 30 h): 79.5134 and 80.4662 and 77.4654
- U2OS cell growth (5 uM, time 32 h): 79.4795 and 78.5459 and 81.9491
- U2OS cell growth (5 uM, time 34 h): 78.2664 and 86.1963 and 84.2226
- U2OS cell growth (5 uM, time 36 h): 82.1073 and 86.138 and 85.1457
- U2OS cell growth (5 uM, time 38 h): 82.2171 and 87.0231 and 87.4323
- U2OS cell growth (5 uM, time 40 h): 87.6039 and 91.3263 and 89.5129
- U2OS cell growth (5 uM, time 42 h): 89.8133 and 92.5442 and 89.9448
- U2OS cell growth (5 uM, time 44 h): 89.7969 and 96.5389 and 93.1186
- U2OS cell growth (5 uM, time 46 h): 91.4082 and 95.5349 and 92.2577
- U2OS cell growth (5 uM, time 48 h): 92.0979 and 96.8453 and 95.0219
- U2OS cell growth (5 uM, time 50 h): 92.2626 and 97.6963 and 94.9963
- U2OS cell growth (5 uM, time 52 h): 95.8266 and 99.082 and 96.9673
- U2OS cell growth (5 uM, time 54 h): 95.3688 and 98.169 and 96.4394
- U2OS cell growth (5 uM, time 56 h): 97.3347 and 98.763 and 97.9524
- U2OS cell growth (5 uM, time 58 h): 98.1995 and 99.4231 and 98.2095
- U2OS cell growth (5 uM, time 60 h): 98.9514 and 99.809 and 99.0075
- U2OS cell growth (5 uM, time 62 h): 99.1809 and 99.7739 and 99.1674
- U2OS cell growth (5 uM, time 64 h): 98.9136 and 99.7481 and 98.9495
- U2OS cell growth (5 uM, time 66 h): 99.2747 and 99.6822 and 99.2362
- U2OS cell growth (5 uM, time 68 h): 99.7498 and 99.7893 and 99.7382
- U2OS cell growth (5 uM, time 70 h): 99.6222 and 99.9506 and 99.7738
- U2OS cell growth (5 uM, time 72 h): 99.9222 and 99.9624 and 99.876
- U2OS cell growth (10 uM, time 12 h): 51.0617 and 38.8025 and 46.5429
- U2OS cell growth (10 uM, time 14 h): 52.0659 and 37.8652 and 50.9249
- U2OS cell growth (10 uM, time 16 h): 58.7346 and 43.8912 and 52.5423
- U2OS cell growth (10 uM, time 18 h): 58.5243 and 45.0108 and 56.1075
- U2OS cell growth (10 uM, time 20 h): 56.1159 and 45.0556 and 56.595
- U2OS cell growth (10 uM, time 22 h): 61.3912 and 49.4998 and 58.1228
- U2OS cell growth (10 uM, time 24 h): 67.8342 and 54.0898 and 65.4691
- U2OS cell growth (10 uM, time 26 h): 70.5452 and 54.7025 and 63.5804
- U2OS cell growth (10 uM, time 28 h): 71.1038 and 55.8489 and 62.8634
- U2OS cell growth (10 uM, time 30 h): 76.1344 and 60.197 and 67.6434
- U2OS cell growth (10 uM, time 32 h): 77.644 and 63.1438 and 72.2623
- U2OS cell growth (10 uM, time 34 h): 81.9269 and 65.1551 and 72.7491
- U2OS cell growth (10 uM, time 36 h): 83.8096 and 69.5145 and 77.9628
- U2OS cell growth (10 uM, time 38 h): 85.0579 and 70.8093 and 79.5497
- U2OS cell growth (10 uM, time 40 h): 87.1841 and 73.8989 and 82.297
- U2OS cell growth (10 uM, time 42 h): 89.4752 and 78.3857 and 84.6775
- U2OS cell growth (10 uM, time 44 h): 90.8213 and 82.0038 and 86.9963
- U2OS cell growth (10 uM, time 46 h): 87.7337 and 79.0012 and 86.7996
- U2OS cell growth (10 uM, time 48 h): 95.1611 and 86.212 and 89.6585
- U2OS cell growth (10 uM, time 50 h): 93.3146 and 85.5346 and 90.1258
- U2OS cell growth (10 uM, time 52 h): 96.1309 and 90.0055 and 93.1913
- U2OS cell growth (10 uM, time 54 h): 96.3062 and 91.0732 and 93.4648
- U2OS cell growth (10 uM, time 56 h): 97.1457 and 92.8802 and 95.1761
- U2OS cell growth (10 uM, time 58 h): 98.3214 and 95.9305 and 96.2979
- U2OS cell growth (10 uM, time 60 h): 98.3167 and 97.5634 and 97.7159
- U2OS cell growth (10 uM, time 62 h): 99.0391 and 96.3875 and 98.2911
- U2OS cell growth (10 uM, time 64 h): 99.2508 and 97.1285 and 98.8507
- U2OS cell growth (10 uM, time 66 h): 99.3631 and 98.1565 and 98.9392
- U2OS cell growth (10 uM, time 68 h): 99.4876 and 98.0047 and 99.1042
- U2OS cell growth (10 uM, time 70 h): 99.6136 and 99.1959 and 99.4943
- U2OS cell growth (10 uM, time 72 h): 99.7391 and 99.7947 and 99.9157
